# Test results published in PubChem BioAssay AID504467 (National Center for Advancing Translational Sciences (NCATS), 2011).
# Out of some 330,000 compounds screened, about 7,700 (2.3%) were called active. The shares of active, inactive and inconclusive entries below differ from those in the screen. Calls follow the shape of the dose curve; as a rule, active = well fitted inhibition curve with a large enough effect; inconclusive = small, poorly fitted or top-dose-only effect, or effect the other way; inactive = flat fitted curve, though single readings scatter. Potencies of inconclusive entries are doubtful fits and often do not repeat.
# Assay: qHTS screen for small molecules that inhibit ELG1-dependent DNA repair in human embryonic kidney (HEK293T) cells expressing luciferase-tagged ELG1; also: nearly all actives have a fitted effect of over 55% in size
# Conditions: HEK293T ELG1-luciferase reporter, luminescence, 16 h, DNA damage induced by 5-fluorouridine; activity change, negative = inhibition: at 46.1 µM (top of the series)
# Excerpt: NIH Molecular Libraries Probe Production Network [MLPCN] NIH Chemical Genomics Center [NCGC] MLPCN Grant: 1 R03 MH092164-01 Assay Provider: Kyungjae Myung, NHGRI, NIH Keywords: MLPCN, qHTS, NCGC, genotoxicity, cancer Assay Overview: Cancer cells divide rapidly compared to normal cells in the body. During cell division, cancer cells need to duplicate their genome by DNA replication. The failure of genome duplication leads to cancer cells' death. Therefore, inhibitors of DNA replication could specifically kill cancer cells. Based on this concept, many chemotherapeutic agents were developed and have been used to treat cancer patients. However, there are a limited number of agents available in the clinical setting, and some of those that do exist have low efficacy and severe side effects. Therefore, if we can find the compounds that effectively block DNA replication either by directly damaging DNA or by inhibiting other cellular mechanisms, the options for cancer treatment will be broadened. With this in mind, we developed a quantitative high-throughput ELG1-luciferase reporter gene assay. Small molecules that specifically block ELG1 function in response to DNA damage can be identified by monitoring the suppression of luciferase activity. Since ELG1 defines a pathway for repairing DNA damage, agents blocking ELG1 function can be used to sensitize cancer cells to chemotherapeutic agents whose mechanism of action involves the induction of DNA damage.
# Assay Protocol Summary: For genotoxicity screening, 2,000 cells in 4 uL/well were dispensed into white, solid-bottom 1536-well plates using a solenoid-based dispenser. Following transfer of 1 uL 5-Fluorouridine and 23 nL compound or DMSO vehicle by a pin tool, the plates were incubated 16 hr at 37 °C and 5% CO2. 5 ul ONE-Glo (Promega) was then added to each plate and following a 30 min incubation at room temperature, luciferase activity was quantified on a ViewLux CCD-based plate reader.
# % is scaled to controls: 0 for no effect and ±100 for the full control effect; potency is read from the fitted curve at half-maximal effect.
SMILES,Potency,"activity change, negative = inhibition"
CCOC(=O)/C=C/C(=O)N1CCc2ccccc21,"inconclusive: 25.9 µM [activator, partial curve, poor fit]",
Cc1cc(C(=O)N/N=C/c2ccc3c(c2)OCO3)c(C)n1-c1ccc(F)cc1,,inactive: -10.8%
Cc1ccc(NC(=O)c2ccc(=O)[nH]n2)cc1C,"inconclusive: 23.1 µM [activator, partial curve]",
Cc1ccc(NC(=O)c2oc3ccccc3c2NC(=O)c2ccc3c(c2)OCO3)cc1,,inactive: 11.6%
COCCOC(=O)c1c(C)oc2ccc(OC(=O)c3ccco3)cc12,"inconclusive: 16.4 µM [activator, partial curve, poor fit]",
Cc1ccc2nc(NC(=O)c3ccccc3F)sc2c1,"inconclusive: 0.651 µM [activator, full curve]",
COc1ccccc1OCC(=O)Nc1c2c(nn1-c1ccc(F)cc1)CS(=O)(=O)C2,,inconclusive: 22.7% [activator]
CCNc1c(C(=O)O)ccc2c1C(=O)c1ccccc1C2=O,,inactive: -13.6%
COc1ccc(-c2cn3cccnc3n2)cc1NC(=O)c1ccc(Br)o1,"inconclusive: 11.6 µM [inhibitor, single point]",
Cc1ccc(-c2nnc(SCC(=O)N3CCOCC3)nc2-c2ccc(C)cc2)cc1,"inconclusive: 32.6 µM [inhibitor, partial curve, poor fit]",
COc1ccc(OC)c(CN2CCN(C(=O)CNC(=O)c3ccccc3F)CC2)c1,,inactive: 18.4%
COc1cc(OC)c(OC)cc1CNC(=O)c1cc(=O)c2ccccc2o1,"inconclusive: 32.6 µM [inhibitor, single point]",
c1ccc2c(CSc3ncnc4nc[nH]c34)cccc2c1,"inconclusive: 20.6 µM [inhibitor, partial curve]",
CCOC(=O)N1CCN(C(=O)c2cn(-c3ccc(C)c(C)c3)c(=O)c3ccccc23)CC1,"inconclusive: 20.6 µM [inhibitor, partial curve, poor fit]",
CCOCCCNC(=S)N1CCCN(c2nc3cc(C)c(C)cc3cc2C#N)CC1,"inconclusive: 23.1 µM [inhibitor, single point]",
COc1ccc(Nc2nc(N)nc(SCc3nnc(C)s3)n2)cc1,"inconclusive: 20.6 µM [activator, partial curve]",
Cc1scc(C(=O)N/N=C/c2ccc(OCC(C)C)cc2)c1C,"inconclusive: 25.9 µM [inhibitor, partial curve, poor fit]",
CCSc1cc(C)nc2c(-c3ccccc3)cnn12,"inconclusive: 9.2 µM [activator, partial curve]",
O=C(CNC(=O)N1CC(=O)Nc2ccccc21)NCc1cccc(Cl)c1,,inactive: -3.3%
COc1cc(OC)cc(C(=O)NC2CCN(Cc3nnnn3Cc3ccc(F)cc3)CC2)c1,"inconclusive: 23.1 µM [inhibitor, partial curve, poor fit]",
CC(=O)c1ccc(NC(=O)C2CCN(S(=O)(=O)c3ccc4c(c3)N(C(C)=O)CCO4)CC2)cc1,,inactive: 9.9%
CCc1cccc(CC)c1NC(=S)Nc1cccc(Cl)c1Cl,,inactive: -10.6%
O=C(CN1C(=O)c2ccccc2S1(=O)=O)Nc1cccc(S(=O)(=O)N2CCCCC2)c1,,inactive: -5.47%
CCOC(=O)C(=O)N(Nc1ccc(C)cc1)c1ccc(C)cc1,"inconclusive: 8.2 µM [activator, partial curve, poor fit]",

# 3 records drawn at random from those above, as already listed:
SMILES,Potency,"activity change, negative = inhibition"
Cc1cc(C(=O)N/N=C/c2ccc3c(c2)OCO3)c(C)n1-c1ccc(F)cc1,,inactive: -10.8%
CCOC(=O)/C=C/C(=O)N1CCc2ccccc21,"inconclusive: 25.9 µM [activator, partial curve, poor fit]",
COCCOC(=O)c1c(C)oc2ccc(OC(=O)c3ccco3)cc12,"inconclusive: 16.4 µM [activator, partial curve, poor fit]",

# Additional entries

SMILES,Potency,"activity change, negative = inhibition"
O=C(c1cc(Cl)ccc1OCc1ccccc1)N1CCOCC1,,inactive: 18.4%
COc1ccc(S(=O)(=O)Nc2cc3c4c(c2)CC(=O)N4CCC3)cc1,,inactive: 0.154%
CCOc1ccccc1N(CC(=O)NC1CCCCC1)S(=O)(=O)c1ccc(C)cc1,"inconclusive: 18.3 µM [inhibitor, partial curve, poor fit]",
NC(N)=N/N=C/c1ccc(OCc2ccccc2)c(OCc2ccccc2)c1,"inconclusive: 16.4 µM [activator, single point]",
CCc1ccc(-c2cc(C)no2)cc1S(=O)(=O)N1CCOc2ccc(C)cc21,"inconclusive: 9.2 µM [inhibitor, partial curve]",
CCOC(=O)c1ccc(NC(=S)NN2CCOCC2)cc1,"inconclusive: 18.4 µM [activator, single point]",
Cc1nn(C)cc1/C=N\NC(=O)c1ccc2c(c1)c(C)c(C)n2Cc1ccccc1,,inactive: -4.4%
Cc1ccc(S(=O)(=O)Nc2nc3ccccc3s2)cc1[N+](=O)[O-],,inactive: 0.096%
O=C(/C=C/c1ccccc1)Nc1scc(-c2ccccc2)c1C(=O)O,"inconclusive: 4.61 µM [activator, full curve]",
Cc1ccc(Cl)cc1N1CCN(C(=O)Cc2c(C(=O)O)[nH]c3ccccc23)CC1,,inactive: 4.41%
COc1ccccc1NC(=O)c1cnc2c(-c3ccccc3)c(C)nn2c1C,"inconclusive: 32.6 µM [inhibitor, partial curve, poor fit]",
C=CCSc1nc(C)cc2c1C(=O)OC2,,inactive: -14.2%
O=C(CCNC(=O)N1CC(=O)Nc2ccccc21)Nc1ccc(Br)cc1F,,inactive: -0.286%
COc1ccc(CNC(=O)CCn2c(=O)c3cccn3c3ccc(F)cc32)cc1,,inactive: -10.7%
COC(=O)[C@H](C)NC(=O)Nc1cc(Cl)ccc1C,"inconclusive: 20.6 µM [activator, single point]",
Cc1cc(C(=O)Nc2cccnc2)no1,,inactive: 3%
CCc1ccc(-c2nn(-c3ccccc3)cc2C2SCC(=O)N2Cc2ccco2)cc1 (stereo unspecified),"inconclusive: 29.1 µM [inhibitor, single point]",
O=C(NCc1ccc(Cl)cc1)c1ccccc1CCc1ccccc1,"inconclusive: 29.1 µM [inhibitor, single point]",
Oc1cccc(/C=N/Nc2cccc3cccnc23)c1,"inconclusive: 5.8 µM [activator, single point]",
Cc1ccc2cc(NC(=O)c3ccccc3C)ccc2n1,"inconclusive: 10.3 µM [activator, partial curve]",
CC(=O)c1cccc(NC(=S)NC(=O)Cc2ccccc2)c1,,inactive: 14.8%
COc1cc2c(cc1OC)CN(C(=O)/C=C/c1cc(OC)c(OC)c(OC)c1)CC2,"inconclusive: 14.6 µM [inhibitor, partial curve, poor fit]",
O=C1CCN(CCCc2ccccc2)CCN1CCO,"inconclusive: 0.231 µM [inhibitor, full curve, poor fit]",
CCCCN(C)C(=O)CNC(=O)c1nn(-c2ccc(OC)cc2OC)c(=O)c2ccccc12,,inactive: -4.21%

SMILES,Potency,"activity change, negative = inhibition"
Cc1cc(NC(=O)c2ccc3c(c2)OCO3)ccc1NC(=O)c1ccccc1,"inconclusive: 7.3 µM [activator, partial curve]",
CCn1c(-c2cc(C3CC3)nc3ccccc23)n[nH]c1=S,"inconclusive: 29.1 µM [inhibitor, single point]",
Nc1ccc(Nc2nc(-c3cc4ccccc4oc3=O)cs2)cc1,"inconclusive: 2.31 µM [activator, partial curve]",
COc1ccc(COC(=O)c2n[nH]c3ccccc23)cc1F,"inconclusive: 14.6 µM [activator, partial curve]",
O=C(NNc1ccc(F)cc1F)C1CCC1,"inconclusive: 32.6 µM [inhibitor, single point]",
COc1ccc(NC(=O)COC(=O)c2c3c(nc4ccccc24)CCCC3)cc1Cl,active: 18.4 µM,
Cc1ccccc1-c1cc(C(=O)NCc2cccc(C(F)(F)F)c2)n(CC2CC(c3cccnc3)=NO2)n1 (stereo unspecified),active: 16.4 µM,
C/C(=C/C(=O)N1CCc2ccccc21)C(=O)O,"inconclusive: 25.9 µM [activator, partial curve, poor fit]",
C/C(=N\NC(=O)c1cccc(O)c1)c1ccc(NC(=O)Cc2ccccc2)cc1,"inconclusive: 20.6 µM [activator, partial curve]",
COc1ccc(S(=O)(=O)N2CCN(C3CCCC(C)C3)CC2)cc1 (stereo unspecified),,inactive: 1.61%
CCN(CC(=O)Nc1c(F)cccc1F)C(=O)c1ccc(N2CCCC2)c([N+](=O)[O-])c1,"inconclusive: 7.3 µM [inhibitor, single point]",
COc1ccc(/C=N/N2CCOCC2)cc1O,"inconclusive: 23.1 µM [activator, single point]",
Cc1nn(-c2ccccc2)c(N2CCCC2)c1/C=N/NC(=O)C1CC1,"inconclusive: 4.11 µM [inhibitor, single point]",
O=c1c2cc(-c3ccccc3)sc2nc2n1CCC2,"inconclusive: 4.11 µM [activator, partial curve]",
O=C(NC(=O)c1ccccc1)C1=C(N2CCCC2)COC1=O,"inconclusive: 9.2 µM [activator, partial curve]",
COc1ccc(CCCC(=O)Nc2ccccc2F)cc1,"inconclusive: 18.4 µM [activator, partial curve]",
COc1ccc(C2CC(=O)N(C)c3ccccc3S2)cc1OC (stereo unspecified),"inconclusive: 23.1 µM [activator, partial curve]",
CC1CCCC(NC(=O)CCNS(=O)(=O)c2ccc(Br)cc2)C1C (stereo unspecified),"inconclusive: 20.6 µM [inhibitor, single point]",
COC(=O)c1c(C)[nH]c(C(=O)CSc2ccc(Cl)cc2)c1C,"inconclusive: 18.4 µM [activator, partial curve]",
CC1(C)Cc2c(C#N)c(SCCOc3ccccc3)nc(N3CCOCC3)c2CO1,active: 2.51 µM,
CCc1ccc2[nH]c(=O)c(C(c3nnnn3CCOC)N3CCN(c4ccccc4F)CC3)cc2c1 (stereo unspecified),"inconclusive: 25.9 µM [inhibitor, single point]",
Cc1cc(NC(=O)C2CC(=O)N(c3ccccc3Cl)C2)no1 (stereo unspecified),,inactive: -0.36%
COc1cccc(C(=O)NC2CCN(C(=O)N3c4ccccc4Sc4ccccc43)CC2)c1,"inconclusive: 14.6 µM [inhibitor, partial curve]",

# In the list so far, 2 contain a nitro group on carbon:
SMILES,Potency,"activity change, negative = inhibition"
Cc1ccc(S(=O)(=O)Nc2nc3ccccc3s2)cc1[N+](=O)[O-],,inactive: 0.096%
CCN(CC(=O)Nc1c(F)cccc1F)C(=O)c1ccc(N2CCCC2)c([N+](=O)[O-])c1,"inconclusive: 7.3 µM [inhibitor, single point]",
